Library screening results

Protein sequences, listed by entry. Tags and fused reporters are not part of them.
UniProt E9BF75, entry or part of it: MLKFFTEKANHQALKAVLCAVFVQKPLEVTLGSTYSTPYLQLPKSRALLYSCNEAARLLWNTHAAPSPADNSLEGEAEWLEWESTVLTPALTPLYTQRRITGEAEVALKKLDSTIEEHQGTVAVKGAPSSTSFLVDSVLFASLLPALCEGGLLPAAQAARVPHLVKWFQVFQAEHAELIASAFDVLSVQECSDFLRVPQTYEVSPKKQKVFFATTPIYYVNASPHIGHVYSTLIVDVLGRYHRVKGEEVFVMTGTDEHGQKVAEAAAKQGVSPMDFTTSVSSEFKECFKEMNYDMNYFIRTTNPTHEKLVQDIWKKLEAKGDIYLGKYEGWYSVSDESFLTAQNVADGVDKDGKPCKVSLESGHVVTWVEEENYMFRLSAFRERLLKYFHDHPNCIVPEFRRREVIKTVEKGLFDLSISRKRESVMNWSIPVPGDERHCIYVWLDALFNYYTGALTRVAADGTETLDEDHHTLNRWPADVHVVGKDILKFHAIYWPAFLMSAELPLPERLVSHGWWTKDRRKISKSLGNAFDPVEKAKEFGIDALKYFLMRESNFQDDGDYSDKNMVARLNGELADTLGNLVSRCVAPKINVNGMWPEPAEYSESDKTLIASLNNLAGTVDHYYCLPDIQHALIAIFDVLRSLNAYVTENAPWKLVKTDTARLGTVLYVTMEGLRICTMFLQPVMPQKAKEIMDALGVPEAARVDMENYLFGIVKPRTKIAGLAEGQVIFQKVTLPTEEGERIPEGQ

The values are deposited in ChEMBL (CHEMBL3988442, “University of Dundee, Small-Polar-MMV Screening Library” (2021)).

Results are percentages, as filed.
The record does not define 0% and 100%; most values in the screen are far below 50% and negative numbers occur (in some assays of this library far below -100).
This is an unselected part of the compounds tested.

Mtb heat-shock: 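Assay on Mycobacterium tuberculosis, filed only as a heat shock assay from Cornell; the read-out is not stated. The concentration is filed as 10 mM, unlikely as a test dose, so the dose is not known. The record gives no direction; compounds that gave an IC50 in retests scored well above the rest, so higher reads as stronger inhibition. Size under these conditions: about 69,000 compounds, about 930 of them at 50% or above in at least one test.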
LdMetRS: 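Methionyl-tRNA synthetase (putative), Leishmania donovani (UniProt E9BF75). Primary screen of methionyl-tRNA synthetase; the read-out is not stated. The test concentration is not given. Values are per cent inhibition. Of about 68,000 compounds tested this way, about 24 (0.035%) reached 50% or more in at least one test.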
Mtb growth Cornell: 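Whole-cell assay for inhibitors of Mycobacterium tuberculosis growth, labelled Cornell in the record; the read-out is not stated. The concentration is filed as 10 mM, unlikely as a test dose, so the dose is not known. Higher means stronger inhibition (inferred from two other growth screens of the library). Size under these conditions: about 53,000 compounds, about 900 of them at 50% or above in at least one test.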

- CC(C)Oc1ncc(C(=O)N2CCC(NC(=O)C3CC3)CC2)cc1Cl : Mtb heat-shock: -4.513%; LdMetRS: 7.5%; Mtb growth Cornell: 20.77%
- CC(C)Cn1cnc(S(=O)(=O)NCCc2nnc3ccccn23)c1 : Mtb heat-shock: -54.15%; LdMetRS: 3.665%; Mtb growth Cornell: -24.11%
- NS(=O)(=O)c1cnn(CCC(=O)N(C2CCCCC2)C2CC2)c1 : Mtb heat-shock: -0.3637%; LdMetRS: 3.876%; Mtb growth Cornell: -5.863%
- COc1nccnc1N1CCN(Cc2ccc(F)cc2)C(=O)C1 : Mtb heat-shock: -18.77%; LdMetRS: 13.44%; Mtb growth Cornell: 20.76%
- CC(C)c1ccc(OCCC(=O)N2CCC(C(N)=O)CC2)cc1 : Mtb heat-shock: 6.448%; LdMetRS: 14.21%
- COc1ccccc1OC1CN(Cc2ccc(C(=O)O)cc2)C1 : Mtb heat-shock: -11.2%; LdMetRS: 16.19%; Mtb growth Cornell: 24.57%
- O=C(c1n[nH]c2c1CCN(Cc1nccs1)C2)N1CCOCC1 : Mtb heat-shock: 2.853%; LdMetRS: -1.031%; Mtb growth Cornell: 6.461%
- CN(C)S(=O)(=O)NCc1cccnc1Oc1ccccc1F : Mtb heat-shock: 7.179%; LdMetRS: 10.13%
- Cc1cccnc1NC(=O)C1CCN(C(=O)C(C)C)CC1 : Mtb heat-shock: -9.706%; LdMetRS: 1.344%; Mtb growth Cornell: -61.92%
- CCN1CC2(CCN(C(=O)c3nc4cc(C)ccn4c3F)CC2)CC1=O : Mtb heat-shock: -13.85%; LdMetRS: 4.732%; Mtb growth Cornell: -10.86%
- COc1ccccc1C1(C(=O)NCCN2CCOCC2)CCOCC1 : Mtb heat-shock: 3.717%; LdMetRS: 10.46%; Mtb growth Cornell: 7.519%
- O=C(NCCNC(=O)C1CC1)c1cnc(-c2ccccc2)nc1 : Mtb heat-shock: 19.42%; LdMetRS: 4.27%
- Cc1ccc(-c2cc(CNC(=O)N3CCC(CO)CC3)on2)cc1 : Mtb heat-shock: 19.08%; LdMetRS: 6.667%; Mtb growth Cornell: 16.04%
- CC[C@H]1CN2CC[C@H]1C[C@@H]2CNCc1ccc(OC(F)(F)F)cc1 : LdMetRS: 13.74%
- CCn1c(N)nc2cc(C(=O)NCCc3nnc(C)s3)cnc21 : Mtb heat-shock: -14.38%; LdMetRS: 18.64%; Mtb growth Cornell: 10.31%
- Cc1n[nH]c(C)c1Sc1ccccc1NC(=O)CN1CCCC1 : Mtb heat-shock: 12.72%; LdMetRS: 18.75%; Mtb growth Cornell: 14.22%
- CSc1ccccc1NC(=O)N1C[C@@H](N(C)C)[C@H](c2ccc(C)cc2)C1 : Mtb heat-shock: 12.05%; LdMetRS: 16.82%; Mtb growth Cornell: 16.41%
- CC(c1ccco1)N(C)C(=O)NCCOc1ccc(C#N)cc1 (stereo not shown) : Mtb heat-shock: -3.869%; LdMetRS: 11.71%; Mtb growth Cornell: -6.08%
- CS(=O)(=O)N1CCC2(CC1)CC(NCc1ccco1)c1ccccc12.O=C(O)C(F)(F)F (stereo not shown) : Mtb heat-shock: 55%; Mtb growth Cornell: -6.14%
- COc1cccc(C(=O)N2CCOCC2CN(C)C)c1OC.O=CO (stereo not shown) : Mtb heat-shock: 8.585%; Mtb growth Cornell: 17.25%
- CN(C)C(=O)Cn1c2c(ccc1=O)CCN(Cc1cnn(C)c1)CC2 : LdMetRS: 9.341%
- O=C(NCc1nnc2n1CCC2)N(Cc1ccco1)C1CC1 : Mtb heat-shock: -10.53%; LdMetRS: 11.96%
- CNC(=O)CN1CC[C@H]2CN(C(=O)c3ccccc3C)C[C@H]2C1 : LdMetRS: 5.584%
- OC(CN1CCC(CNCc2ccccn2)CC1)c1ccccc1 (stereo not shown) : Mtb heat-shock: -0.4141%; LdMetRS: 11.17%; Mtb growth Cornell: -11.23%